Results published in patent US9221900B2, “Methods for identifying safe and functional humanized antibodies” (AC IMMUNE S.A., priority 2010, dated 2015).

System: p38MAPK
Assay: Phospho-p38MAPK immunofluorescence with microglia marker Iba1
Type: cell-based, rat
Conditions: Aβ1-42 oligomers complexed to antibody

Substance	cells staining positive for phospho-p38MAPK that were Iba1+
MABT: humanized anti-Aβ monoclonal antibody of IgG4 isotype, affinity matured and humanized form of mouse mMABT	approximately 93%
MABT-IgG1: same antigen binding sequences as MABT on human IgG1 wild-type backbone with full FcγR-binding capacity	approximately 93%
